The target of this experiment is T1, mouse Fbxl21 (mouse) (UniProt Q8BFZ4).
T1 sequence: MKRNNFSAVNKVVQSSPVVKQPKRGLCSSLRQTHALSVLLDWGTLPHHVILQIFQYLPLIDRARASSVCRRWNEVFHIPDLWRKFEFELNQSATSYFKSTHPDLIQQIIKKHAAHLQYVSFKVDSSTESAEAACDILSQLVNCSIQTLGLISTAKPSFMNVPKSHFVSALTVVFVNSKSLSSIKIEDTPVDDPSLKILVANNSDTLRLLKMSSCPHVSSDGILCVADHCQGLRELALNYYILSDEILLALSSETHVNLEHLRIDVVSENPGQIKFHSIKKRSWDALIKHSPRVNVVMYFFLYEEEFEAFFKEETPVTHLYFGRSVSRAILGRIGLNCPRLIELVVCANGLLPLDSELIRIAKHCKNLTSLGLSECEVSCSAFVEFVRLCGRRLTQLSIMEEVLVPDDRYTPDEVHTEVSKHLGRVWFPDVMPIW
Kind of experiment: co-IP; COS7 cells co-transfected with Myc-Fbxl and Flag-Cry1 vectors, harvested 48 h post-transfection in IP buffer (150 mM NaCl, 5 mM EDTA, 0.5% Nonidet P40, 50 mM Tris pH 7.8); supernatant incubated overnight at 4°C with anti-Myc affinity resin; Western blot with anti-Myc or anti-Flag. (In general: A western blot detects proteins with antibodies after separation by electrophoresis.)

Sequences of proteins named here, by UniProt entry; tags and fusion partners are left off.
UniProt A0ACI6NKV9: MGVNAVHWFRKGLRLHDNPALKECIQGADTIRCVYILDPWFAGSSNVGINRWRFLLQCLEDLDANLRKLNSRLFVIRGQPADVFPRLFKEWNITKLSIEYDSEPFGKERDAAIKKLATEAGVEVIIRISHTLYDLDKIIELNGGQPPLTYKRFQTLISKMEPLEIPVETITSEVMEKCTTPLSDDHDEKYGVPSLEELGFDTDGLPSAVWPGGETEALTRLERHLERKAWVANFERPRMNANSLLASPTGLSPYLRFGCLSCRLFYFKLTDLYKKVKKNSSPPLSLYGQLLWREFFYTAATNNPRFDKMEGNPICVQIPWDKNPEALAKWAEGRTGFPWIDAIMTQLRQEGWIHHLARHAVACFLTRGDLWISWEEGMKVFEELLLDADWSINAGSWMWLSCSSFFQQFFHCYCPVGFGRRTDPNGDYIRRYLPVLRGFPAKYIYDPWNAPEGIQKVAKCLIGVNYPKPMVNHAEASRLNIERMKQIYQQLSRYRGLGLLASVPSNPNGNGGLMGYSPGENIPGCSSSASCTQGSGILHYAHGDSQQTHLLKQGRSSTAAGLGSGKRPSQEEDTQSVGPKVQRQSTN

These are yes or no findings as the source states them, for the method shown. In cells and extracts the contact can be indirect. Some entries that bind do so weakly or less than the wild type.

For “ovine CRY1 (Cryptochrome 1), Flag-tagged (from UniProt A0ACI6NKV9 1-587)”, the binding result was “binds”.
